Experimental data from PubChem BioAssay AID2662 (National Center for Advancing Translational Sciences (NCATS), 2010).
In all, about 290,000 compounds went through this assay and about 110 (0.038%) were called active. This list was built around the results that the source calls inconclusive (neither active nor inactive); the mix of calls is not that of the screen. The call rests on the fitted dose curve; in most records, active means well fitted inhibition curve with a large enough effect in the polarisation, with a control signal flat (not every such curve was filed as active); inconclusive means small, poorly fitted or top-dose-only effect, or effect the other way, or a change in a side signal; inactive means no such curve, though single readings can be large or run the other way; the % refers to the polarisation. A potency beside an inconclusive call is a rough fit, not a confirmed value. “Side channel” marks fits to a control or component signal instead of the main read-out.

The chains behind the UniProt entries cited, without tags or fusion partners.
UniProt Q03164, whole entry, looked up: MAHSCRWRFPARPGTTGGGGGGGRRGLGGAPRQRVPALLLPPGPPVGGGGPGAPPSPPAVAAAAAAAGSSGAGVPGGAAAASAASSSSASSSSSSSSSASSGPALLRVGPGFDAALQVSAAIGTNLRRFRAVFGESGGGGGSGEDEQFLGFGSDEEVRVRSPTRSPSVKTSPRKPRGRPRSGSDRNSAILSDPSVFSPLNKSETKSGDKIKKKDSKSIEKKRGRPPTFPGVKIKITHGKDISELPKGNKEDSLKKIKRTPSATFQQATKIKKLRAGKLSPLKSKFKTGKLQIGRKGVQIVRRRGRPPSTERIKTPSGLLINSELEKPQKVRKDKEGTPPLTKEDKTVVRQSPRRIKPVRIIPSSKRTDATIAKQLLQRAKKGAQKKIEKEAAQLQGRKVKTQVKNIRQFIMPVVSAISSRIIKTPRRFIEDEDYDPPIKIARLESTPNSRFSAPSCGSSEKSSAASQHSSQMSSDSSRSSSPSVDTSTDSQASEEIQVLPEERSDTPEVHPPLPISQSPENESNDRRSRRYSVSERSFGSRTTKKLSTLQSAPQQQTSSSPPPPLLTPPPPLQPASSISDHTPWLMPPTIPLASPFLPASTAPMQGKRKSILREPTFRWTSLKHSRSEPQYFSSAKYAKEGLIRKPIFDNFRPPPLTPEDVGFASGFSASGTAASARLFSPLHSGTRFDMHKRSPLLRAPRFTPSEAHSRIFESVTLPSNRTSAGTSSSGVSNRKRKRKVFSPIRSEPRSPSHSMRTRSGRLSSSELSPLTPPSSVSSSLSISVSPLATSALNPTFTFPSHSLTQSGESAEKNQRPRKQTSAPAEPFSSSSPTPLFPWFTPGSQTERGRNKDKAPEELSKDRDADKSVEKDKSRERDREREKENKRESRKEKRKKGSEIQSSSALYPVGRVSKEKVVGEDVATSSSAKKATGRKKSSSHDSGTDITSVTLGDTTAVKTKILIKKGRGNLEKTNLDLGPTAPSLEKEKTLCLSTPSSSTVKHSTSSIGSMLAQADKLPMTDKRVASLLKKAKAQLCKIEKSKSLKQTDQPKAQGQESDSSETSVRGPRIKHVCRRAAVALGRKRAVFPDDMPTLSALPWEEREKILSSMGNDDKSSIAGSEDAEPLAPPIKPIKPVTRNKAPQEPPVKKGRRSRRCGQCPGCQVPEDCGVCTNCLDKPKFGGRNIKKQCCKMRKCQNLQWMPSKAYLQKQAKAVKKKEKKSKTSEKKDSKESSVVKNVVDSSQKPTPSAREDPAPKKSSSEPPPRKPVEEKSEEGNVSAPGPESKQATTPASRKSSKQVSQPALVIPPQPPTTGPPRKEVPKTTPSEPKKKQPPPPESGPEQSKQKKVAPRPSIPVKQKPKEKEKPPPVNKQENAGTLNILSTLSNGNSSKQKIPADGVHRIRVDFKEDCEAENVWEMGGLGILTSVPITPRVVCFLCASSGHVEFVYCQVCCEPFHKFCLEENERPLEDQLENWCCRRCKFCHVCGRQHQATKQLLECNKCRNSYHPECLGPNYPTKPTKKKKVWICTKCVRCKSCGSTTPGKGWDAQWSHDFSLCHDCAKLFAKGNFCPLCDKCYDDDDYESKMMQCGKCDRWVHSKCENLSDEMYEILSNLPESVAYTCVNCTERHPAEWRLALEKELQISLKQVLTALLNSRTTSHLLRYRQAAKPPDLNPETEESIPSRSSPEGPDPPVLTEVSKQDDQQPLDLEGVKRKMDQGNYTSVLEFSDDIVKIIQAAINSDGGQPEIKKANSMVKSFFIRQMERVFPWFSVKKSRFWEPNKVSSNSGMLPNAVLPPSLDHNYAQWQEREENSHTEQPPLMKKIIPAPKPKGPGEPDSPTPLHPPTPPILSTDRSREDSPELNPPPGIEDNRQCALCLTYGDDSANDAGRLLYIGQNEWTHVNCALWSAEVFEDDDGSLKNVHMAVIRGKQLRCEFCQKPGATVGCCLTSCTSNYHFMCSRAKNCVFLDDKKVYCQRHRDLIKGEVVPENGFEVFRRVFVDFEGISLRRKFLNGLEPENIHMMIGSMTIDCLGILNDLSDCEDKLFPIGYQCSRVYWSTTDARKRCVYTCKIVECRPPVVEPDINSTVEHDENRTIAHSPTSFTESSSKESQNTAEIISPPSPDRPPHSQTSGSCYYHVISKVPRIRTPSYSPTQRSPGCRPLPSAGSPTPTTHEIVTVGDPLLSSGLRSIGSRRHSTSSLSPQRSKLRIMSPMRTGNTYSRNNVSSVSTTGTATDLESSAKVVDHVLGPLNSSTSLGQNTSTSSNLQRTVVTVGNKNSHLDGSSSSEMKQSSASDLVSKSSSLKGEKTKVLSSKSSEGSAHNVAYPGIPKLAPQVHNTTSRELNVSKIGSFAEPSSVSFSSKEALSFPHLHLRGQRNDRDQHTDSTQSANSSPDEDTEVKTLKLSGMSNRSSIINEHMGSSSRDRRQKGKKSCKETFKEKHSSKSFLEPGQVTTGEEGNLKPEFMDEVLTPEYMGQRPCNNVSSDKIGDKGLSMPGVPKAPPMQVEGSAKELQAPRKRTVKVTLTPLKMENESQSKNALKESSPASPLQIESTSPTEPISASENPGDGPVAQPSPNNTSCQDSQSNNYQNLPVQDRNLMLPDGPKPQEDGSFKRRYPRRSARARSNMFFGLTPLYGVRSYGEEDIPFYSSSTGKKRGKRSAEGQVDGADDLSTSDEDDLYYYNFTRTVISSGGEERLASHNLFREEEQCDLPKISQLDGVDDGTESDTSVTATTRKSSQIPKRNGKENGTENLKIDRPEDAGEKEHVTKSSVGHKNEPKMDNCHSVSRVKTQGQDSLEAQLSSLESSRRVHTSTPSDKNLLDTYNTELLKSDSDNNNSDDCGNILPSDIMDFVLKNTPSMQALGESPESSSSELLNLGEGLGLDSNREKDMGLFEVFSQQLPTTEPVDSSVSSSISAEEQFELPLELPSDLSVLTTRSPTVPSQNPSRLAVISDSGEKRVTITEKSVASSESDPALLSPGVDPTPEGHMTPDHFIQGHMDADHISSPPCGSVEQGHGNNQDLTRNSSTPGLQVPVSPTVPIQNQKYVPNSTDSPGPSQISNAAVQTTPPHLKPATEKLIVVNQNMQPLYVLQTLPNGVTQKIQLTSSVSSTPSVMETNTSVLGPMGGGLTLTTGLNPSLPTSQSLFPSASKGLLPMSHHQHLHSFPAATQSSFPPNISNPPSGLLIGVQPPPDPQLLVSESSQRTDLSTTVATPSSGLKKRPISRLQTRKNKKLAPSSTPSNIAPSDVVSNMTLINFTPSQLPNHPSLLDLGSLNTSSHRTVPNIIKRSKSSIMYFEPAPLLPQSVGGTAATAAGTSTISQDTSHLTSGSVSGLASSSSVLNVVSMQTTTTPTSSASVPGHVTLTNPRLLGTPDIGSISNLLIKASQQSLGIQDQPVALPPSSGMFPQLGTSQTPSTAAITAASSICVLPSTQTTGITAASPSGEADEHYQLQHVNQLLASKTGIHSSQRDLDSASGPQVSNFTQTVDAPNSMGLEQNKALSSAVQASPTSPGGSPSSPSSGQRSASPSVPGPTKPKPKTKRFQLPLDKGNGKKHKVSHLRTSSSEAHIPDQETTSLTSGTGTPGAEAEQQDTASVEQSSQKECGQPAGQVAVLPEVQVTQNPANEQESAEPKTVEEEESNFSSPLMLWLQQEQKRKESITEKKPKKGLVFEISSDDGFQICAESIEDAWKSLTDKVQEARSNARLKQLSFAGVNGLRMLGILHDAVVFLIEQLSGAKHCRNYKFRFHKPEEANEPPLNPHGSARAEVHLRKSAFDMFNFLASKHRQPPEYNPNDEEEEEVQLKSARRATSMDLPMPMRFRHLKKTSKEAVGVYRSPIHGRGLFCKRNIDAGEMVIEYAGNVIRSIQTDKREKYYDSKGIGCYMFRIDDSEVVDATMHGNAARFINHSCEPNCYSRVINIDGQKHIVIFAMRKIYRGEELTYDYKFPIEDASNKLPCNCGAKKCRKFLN

The compounds below were run against Histone-lysine N-methyltransferase 2A (Homo sapiens) (UniProt Q03164) (assay: qHTS Fluorescence Polarization Assay for Inhibitors of MLL CXXC domain - DNA interaction). Settings: MLL-CXXC / FITC-HOXA9 DNA fluorescence polarization; series mostly up to 115 µM.
Summary of the method: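 Steps: dispense CXXC domain solution (7 uM) → pin compounds or unlabeled HOX-A9 DNA control → 5 min ambient → add FLSN-HOX-A9 solution (50 nM) → spin → 30 min ambient → fluorescence polarization. Tris pH 7.5/NaCl/DTT/BSA buffer.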
Potency means the concentration at half of the fitted maximal effect.

Row | Compound | Potency
1 | CCOc1ccc(N2C(=O)/C(=C\c3cccs3)C(=O)NC2=S)cc1 | inactive
2 | C#C[C@]1(O)CCC2C3CCC4=C/C(=N/OCC(=O)NC(C)C(=O)NC(CCSC)C(=O)O)CC[C@]4(C)C3CC[C@@]21C (stereo not given in full) | inactive
3 | O=c1[nH]c(=S)n(-c2ccc(Cl)cc2)c(O)c1C=Nc1ccc(N2CCOCC2)cc1 | inconclusive: 31.6 µM [fluorescent, side channel, partial curve]
4 | NC(Cc1ccc(Oc2cc(I)c(O)c(I)c2)c(I)c1)C(=O)O (stereo not given) | inactive
5 | COc1cc(/C=C2\C(=O)NC(=O)N(CCc3ccc(F)cc3)C2=O)ccc1O | inconclusive: 31.6 µM [inhibitor, partial curve]
6 | CCOC(=O)/C(C#N)=C1/SC(C)C(=O)N1c1ccc(Br)cc1 (stereo not given) | inconclusive: 11.2 µM [fluorescent, side channel, single point]
7 | CCCOc1ccc(N2C(=O)CC(N3CC=C(c4ccccc4)CC3)C2=O)cc1 (stereo not given) | inconclusive: 44.7 µM [fluorescent, side channel, single point]
8 | Cn1cc(C=C2C(=O)NC(=O)NC2=O)c2ccccc21 | inconclusive: 89.1 µM [fluorescent, single point]
9 | C[N+]1(C)C2CCC1CC(OC(=O)c1c[nH]c3ccccc13)C2 (stereo not given) | inactive
10 | COc1ccc2c(c1OC)C[N+]1([O-])CCc3cc4c(cc3C1C2)OCO4 (stereo not given) | inconclusive: 35.5 µM [fluorescent, side channel, single point]
11 | CC(O)C(C)OC(=O)[C@@H]1C[C@@H]2c3cccc4c3c(cn4C(C)C)C[C@H]2N(C)C1 (stereo not given in full) | inconclusive: 79.4 µM [inhibitor, single point]
12 | CCN(CC)c1ccc(N=Cc2c(O)n(CCC3=CCCCC3)c(=O)[nH]c2=O)cc1 | inconclusive: 31.6 µM [fluorescent, side channel, partial curve]
13 | NC(N)=N/N=C/c1cn(-c2ccccc2)nc1-c1cccs1 | inconclusive: 44.7 µM [quencher, side channel, single point]
14 | COc1cc(C=C2C(=O)NC(=O)NC2=O)ccc1O | inconclusive: 6.31 µM [inhibitor, full curve]
15 | O=C1NC(=O)N(Cc2ccco2)C(=O)/C1=C\c1ccc(-c2ccc(F)cc2)o1 | inconclusive: 35.5 µM [inhibitor, single point]
16 | COc1cc(C(c2c(C)[nH]n(-c3ccccc3)c2=O)c2c(C)[nH]n(-c3ccccc3)c2=O)cc(OC)c1OC | inconclusive: 31.6 µM [inhibitor, partial curve]
17 | Cc1cc(C(=O)N2CCC3(CC2)OCCO3)no1 | inconclusive: 15.8 µM [quencher, side channel, single point]
18 | O=C1NC(=O)N(c2cccc(Cl)c2)C(=O)/C1=C\c1ccc(Sc2nc3ccccc3[nH]2)o1 | inconclusive: 28.2 µM [fluorescent, side channel, partial curve]
19 | O=c1[nH]c(=S)[nH]c(O)c1/C=C1/C=c2ccccc2=N1 | inconclusive: 89.1 µM [inhibitor, single point]
20 | CC[N+](C)(CC)CCCCOc1ccc2c(c1)C(=O)c1cc(OCCCC[N+](C)(CC)CC)ccc1-2 | inconclusive: 25.1 µM [quencher, side channel, partial curve]
21 | CCCc1cc(=O)oc2cc(OCc3ccc(C(=O)O)o3)ccc12 | inconclusive: 14.1 µM [quencher, side channel, single point]
22 | COc1cc2c(cc1OC)-c1c(OC)c(OC)cc3c1C(C2)N(C)CC3 (stereo not given) | inactive
23 | C[C@]12CCC3C(CC[C@H]4C[C@H](O)CC[C@]34C)C1CC[C@@H]2C(=O)CO (stereo not given in full) | inconclusive: 0.0355 µM [inhibitor, full curve, poor fit]
24 | C[C@H]1COC2=C1C(=O)C(=O)c1c2ccc2c1CCCC2(C)C | inconclusive: 31.6 µM [inhibitor, partial curve]
25 | CC(C)Cn1cc(C(=O)N2CCC3(CC2)OCCO3)c2c3ccccc3n(C)c2c1=O | inactive
26 | O=c1[nH]c(=O)n(Cc2ccco2)c(O)c1C=NCc1ccco1 | inactive
27 | CN1C(=O)/C(=C\c2ccc(N3CCCCC3)o2)C(=O)NC1=S | inconclusive: 8.91 µM [fluorescent, side channel, full curve]
28 | O=[N+]([O-])c1ccccc1CNCCc1ccc(F)cc1 | inconclusive: 1.41 µM [quencher, side channel, full curve, poor fit]

Random excerpt: three entries already listed
Row | Compound | Potency
28 | O=[N+]([O-])c1ccccc1CNCCc1ccc(F)cc1 | inconclusive: 1.41 µM [quencher, side channel, full curve, poor fit]
15 | O=C1NC(=O)N(Cc2ccco2)C(=O)/C1=C\c1ccc(-c2ccc(F)cc2)o1 | inconclusive: 35.5 µM [inhibitor, single point]
20 | CC[N+](C)(CC)CCCCOc1ccc2c(c1)C(=O)c1cc(OCCCC[N+](C)(CC)CC)ccc1-2 | inconclusive: 25.1 µM [quencher, side channel, partial curve]

(continued)

Row | Compound | Potency
29 | O=C(N=Nc1c(O)[nH]c(=O)[nH]c1=O)C1COc2ccccc2O1 (stereo not given) | inconclusive: 89.1 µM [inhibitor, single point]
30 | COc1cccc(-n2c(/C=C/c3ccc(O)c(O)c3)nc3ccccc3c2=O)c1 | inconclusive: 28.2 µM [fluorescent, partial curve]
31 | CC(=O)OC(C)(C)/C=C/C(=O)C(C)(O)C1[C@H](O)C[C@@]2(C)C3CC=C4C(CC[C@@H](O)C4(C)C)[C@]3(CO)C(=O)C[C@]12C (stereo not given in full) | inconclusive: 89.1 µM [fluorescent, side channel, single point]
32 | COc1ccc(N2C(=O)/C(=C/c3cc(C)n(-c4ccc(C)cn4)c3C)C(=O)NC2=S)c(OC)c1 | inconclusive: 31.6 µM [fluorescent, side channel, partial curve]
33 | COc1ccccc1N1C(=O)NC(=O)/C(=C\c2cnn(-c3ccccc3)c2)C1=O | inconclusive: 39.8 µM [inhibitor, single point]
34 | C/C=C(\C)C(=O)OC1C(C)=C2C(C1OC(=O)CCCCC)C(C)(OC(C)=O)CC(OC(=O)CCC)C1(O)C2OC(=O)C1(C)O (stereo not given) | inconclusive: 70.8 µM [quencher, side channel, single point]
35 | CCC(C)NC(=O)c1c(N)n(CC2CCCO2)c2nc3ccccc3nc12 (stereo not given) | inconclusive: 35.5 µM [inhibitor, partial curve]
36 | CNCC[C@H](Oc1cccc2ccccc12)c1cccs1 | inconclusive: 7.08 µM [fluorescent, side channel, full curve]
37 | C=CCSC1=N/C(=C\c2cc(OC)c3c(c2)OCO3)C(=O)S1 | inconclusive: 39.8 µM [inhibitor, partial curve]
38 | O=S(=O)(c1ccccc1)N1CC1c1ccccc1 (stereo not given) | inconclusive: 100 µM [fluorescent, side channel, partial curve, poor fit]
39 | O=c1cccc2n1CC1CC2CN(CC(O)CN2CC3CC(C2)c2cccc(=O)n2C3)C1 (stereo not given) | inconclusive: 1.12 µM [fluorescent, side channel, full curve, poor fit]
40 | Cc1cc2c(C(F)(F)F)cc(=O)oc2c2c1NCCC2 | inconclusive: 11.2 µM [fluorescent, side channel, partial curve]
41 | Cc1ccccc1N1C(=O)NC(=O)/C(=C\c2cc(Br)c(N3CCOCC3)o2)C1=O | inconclusive: 39.8 µM [fluorescent, side channel, partial curve]
42 | O=C1NC(=O)N(c2ccc3c(c2)OCO3)C(=O)/C1=C/c1ccc(N2CCCCC2)o1 | inconclusive: 39.8 µM [fluorescent, side channel, partial curve]
43 | COc1ccc2c(c1)NP(=S)(Oc1ccccc1)N2 (stereo not given) | inconclusive: 31.6 µM [fluorescent, side channel, partial curve]
44 | O=C1NC(=S)N(c2ccccc2F)C(=O)/C1=C\c1cccs1 | inconclusive: 17.8 µM [inhibitor, partial curve]
45 | COc1cc(OC)c(OC)cc1/C=C1/C(=O)NC(=O)N(Cc2ccccc2)C1=O | inconclusive: 70.8 µM [inhibitor, single point]
46 | Cc1ccc(C(=O)Cn2c(-c3ccccc3)noc2=O)cc1 | inconclusive: 70.8 µM [fluorescent, side channel, single point]
47 | COCCNC(=O)c1c(NC(=O)c2ccc(Br)o2)n(Cc2ccccc2)c2nc3ccccc3nc12 | inconclusive: 14.1 µM [fluorescent, single point]
48 | O=C(O)Cn1cc(/C=C2\C(=O)NC(=O)N(Cc3ccco3)C2=O)c2ccccc21 | inconclusive: 22.4 µM [inhibitor, partial curve]
49 | CCCCCCCCCCCCCCCC[n+]1ccccc1 | inconclusive: 50.1 µM [quencher, side channel, partial curve]
50 | O=c1[nH]c(=O)n(-c2ccccc2)c(O)c1/C=C/C=Nc1ccccc1 | inconclusive: 39.8 µM [fluorescent, side channel, partial curve]
51 | Cc1ccc(/C=C2\C(=O)NC(=O)N(CCc3ccc(F)cc3)C2=O)o1 | inconclusive: 89.1 µM [fluorescent, side channel, single point]
52 | Clc1ccc(C(c2ccc(Cl)cc2)n2cc[n+](CC(OCc3ccc(Cl)cc3Cl)c3ccc(Cl)cc3Cl)c2)cc1 (stereo not given) | inconclusive: 28.2 µM [quencher, side channel, partial curve]
53 | COc1ccc(CCN)cc1O | inactive
54 | CCN1C(=O)NC(=O)/C(=C/c2cc(C)n(-c3sc(C)c(C)c3C#N)c2C)C1=O | inconclusive: 20 µM [fluorescent, side channel, partial curve, poor fit]
55 | COC(=O)Cn1cc(/C=C2\C(=O)NC(=O)N(c3ccc(OC)cc3)C2=O)c2ccccc21 | inconclusive: 31.6 µM [fluorescent, side channel, partial curve]
